Data reported in PMC10770036, “Novel dual inhibitors of PARP and HDAC induce intratumoral STING-mediated antitumor immunity in triple-negative breast cancer” (Cell Death & Disease, 2024).

What was measured:
MCF-7 cells = assay: MTT cell viability assay, MCF-7; conditions: Homo sapiens, MCF7, 72 h, read-out: IC50 MCF-7
MDA-MB-468 cells = assay: MTT cell viability assay, MDA-MB-468; conditions: Homo sapiens, MDA-MB-468, 72 h, read-out: IC50 MDA-MB-468
MDA-MB-436 cells = assay: MTT cell viability assay, MDA-MB-436; conditions: Homo sapiens, MDA-MB-436, 72 h, read-out: IC50 MDA-MB-436
MDA-MB-231 cells = assay: MTT cell viability assay, MDA-MB-231; conditions: Homo sapiens, MDA-MB-231, 72 h, read-out: IC50 MDA-MB-231
MCF-10A cells = assay: MTT cell viability assay, MCF-10A; conditions: Homo sapiens, 72 h, read-out: IC50 MCF-10A

## O=C(CCCCCCC(=O)Nc1ccccc1)NO [Vorinostat, vorinostat, reference compound]
MCF-7 cells
  IC50: 0.98 ± 0.32 µM
MDA-MB-468 cells
  IC50: 3.36 ± 1.21 µM
MDA-MB-436 cells
  IC50: 4.29 ± 1.25 µM
MDA-MB-231 cells
  IC50: 2.59 ± 0.27 µM
MCF-10A cells
  IC50: 6.4 ± 2.72 µM
